In paper PMC4242536, “Cell Surface Protein Disulfide Isomerase Regulates Natriuretic Peptide Generation of Cyclic Guanosine Monophosphate” (PLoS ONE, 2014) one finds binding data, which are given here for one molecule.

The assay deals with Protein disulfide isomerase (PDI), purified full-length protein. In words: SPR; Biacore T200, 25°C; PDI amine-coupled to a CM5 chip; ANP, BNP or CNP injected at 40 ul/min for 30 s, 150 s dissociation; running buffer 150 mM NaCl, 0.005% Polysorbate 20, 10 mM HEPES, pH 7.4; peptides 0-1600 nM; both purified. (Surface plasmon resonance follows binding to a sensor surface in real time, without labels.)

These are yes or no findings as the source states them, for the method shown. Binding can be weak; no strength is given.

In the case of GLSKGCFGLKLDRIGSMSGLGC (peptide, UniProt P23582 105-126) [C-type natriuretic peptide (CNP)], the binding result is listed as “binds weakly”.
